Reference: publication PMC8870177
These are yes or no findings as the source states them, for the method shown. Binding seen in cells or lysates may run through a third protein. Some entries that bind do so weakly or less than the wild type.

Chains of the proteins cited; added tags and fusions are not shown. Residues count along the entry.
UniProt Q13153, residues 67-150: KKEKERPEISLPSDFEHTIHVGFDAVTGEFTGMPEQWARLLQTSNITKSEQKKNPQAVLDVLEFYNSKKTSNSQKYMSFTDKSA
UniProt P60766: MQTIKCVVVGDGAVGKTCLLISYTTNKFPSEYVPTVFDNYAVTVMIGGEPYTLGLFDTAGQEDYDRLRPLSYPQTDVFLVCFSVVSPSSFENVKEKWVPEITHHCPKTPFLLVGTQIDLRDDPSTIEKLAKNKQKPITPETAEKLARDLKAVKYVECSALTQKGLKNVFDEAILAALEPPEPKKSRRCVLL

Biological target: GST-fused p21-binding domain (PBD) of human PAK1 (aa 67-150) (human) (UniProt Q13153)
Experiment: pull-down; GST-fused PBD (5 ug) on Glutathione Sepharose 4B beads incubated 30 min at 4 C with lysates of serum-starved transfected COS7 cells (Plek2-WT or Plek2-RW, with or without Gbeta1 and Ggamma2 co-expressed); 50 mM Tris-HCl pH 7.5, 150 mM NaCl, 5 mM MgCl2, 0.1% SDS, 1% Nonidet P-40, 0.5% deoxycholate; bound proteins by Western blot with anti-Myc; only the target purified

- binding: binds
Substance: Myc-tagged mouse Cdc42 (from UniProt P60766 1-191)
